According to doi:10.1101/707661:
These are yes or no findings as the source states them, for the method shown. In cells and extracts the contact can be indirect. Some binding calls cover weakened binding; strength is not graded here. For some of these results: Sequences can lack the tags named with a protein.

The chains behind the UniProt entries cited, without tags or fusion partners.
UniProt P11387: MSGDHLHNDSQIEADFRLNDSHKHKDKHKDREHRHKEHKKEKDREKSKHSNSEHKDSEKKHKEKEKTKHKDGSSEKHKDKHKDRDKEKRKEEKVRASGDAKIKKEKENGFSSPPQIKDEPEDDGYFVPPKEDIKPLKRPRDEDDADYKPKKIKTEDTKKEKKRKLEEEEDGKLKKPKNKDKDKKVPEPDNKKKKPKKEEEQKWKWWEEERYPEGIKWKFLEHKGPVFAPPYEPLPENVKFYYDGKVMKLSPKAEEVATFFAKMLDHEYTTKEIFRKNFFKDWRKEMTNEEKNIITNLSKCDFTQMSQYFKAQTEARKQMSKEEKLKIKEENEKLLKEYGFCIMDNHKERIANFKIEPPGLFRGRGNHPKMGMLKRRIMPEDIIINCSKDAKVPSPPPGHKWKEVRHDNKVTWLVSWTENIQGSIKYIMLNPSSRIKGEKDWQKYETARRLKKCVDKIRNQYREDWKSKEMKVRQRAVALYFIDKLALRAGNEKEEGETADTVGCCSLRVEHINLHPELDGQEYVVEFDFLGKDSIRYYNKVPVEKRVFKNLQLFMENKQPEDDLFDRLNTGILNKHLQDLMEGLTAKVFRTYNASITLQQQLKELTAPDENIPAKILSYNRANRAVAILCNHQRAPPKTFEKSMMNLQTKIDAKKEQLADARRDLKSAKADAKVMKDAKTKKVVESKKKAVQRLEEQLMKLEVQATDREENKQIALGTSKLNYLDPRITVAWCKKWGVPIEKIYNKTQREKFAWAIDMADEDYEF
UniProt P11388: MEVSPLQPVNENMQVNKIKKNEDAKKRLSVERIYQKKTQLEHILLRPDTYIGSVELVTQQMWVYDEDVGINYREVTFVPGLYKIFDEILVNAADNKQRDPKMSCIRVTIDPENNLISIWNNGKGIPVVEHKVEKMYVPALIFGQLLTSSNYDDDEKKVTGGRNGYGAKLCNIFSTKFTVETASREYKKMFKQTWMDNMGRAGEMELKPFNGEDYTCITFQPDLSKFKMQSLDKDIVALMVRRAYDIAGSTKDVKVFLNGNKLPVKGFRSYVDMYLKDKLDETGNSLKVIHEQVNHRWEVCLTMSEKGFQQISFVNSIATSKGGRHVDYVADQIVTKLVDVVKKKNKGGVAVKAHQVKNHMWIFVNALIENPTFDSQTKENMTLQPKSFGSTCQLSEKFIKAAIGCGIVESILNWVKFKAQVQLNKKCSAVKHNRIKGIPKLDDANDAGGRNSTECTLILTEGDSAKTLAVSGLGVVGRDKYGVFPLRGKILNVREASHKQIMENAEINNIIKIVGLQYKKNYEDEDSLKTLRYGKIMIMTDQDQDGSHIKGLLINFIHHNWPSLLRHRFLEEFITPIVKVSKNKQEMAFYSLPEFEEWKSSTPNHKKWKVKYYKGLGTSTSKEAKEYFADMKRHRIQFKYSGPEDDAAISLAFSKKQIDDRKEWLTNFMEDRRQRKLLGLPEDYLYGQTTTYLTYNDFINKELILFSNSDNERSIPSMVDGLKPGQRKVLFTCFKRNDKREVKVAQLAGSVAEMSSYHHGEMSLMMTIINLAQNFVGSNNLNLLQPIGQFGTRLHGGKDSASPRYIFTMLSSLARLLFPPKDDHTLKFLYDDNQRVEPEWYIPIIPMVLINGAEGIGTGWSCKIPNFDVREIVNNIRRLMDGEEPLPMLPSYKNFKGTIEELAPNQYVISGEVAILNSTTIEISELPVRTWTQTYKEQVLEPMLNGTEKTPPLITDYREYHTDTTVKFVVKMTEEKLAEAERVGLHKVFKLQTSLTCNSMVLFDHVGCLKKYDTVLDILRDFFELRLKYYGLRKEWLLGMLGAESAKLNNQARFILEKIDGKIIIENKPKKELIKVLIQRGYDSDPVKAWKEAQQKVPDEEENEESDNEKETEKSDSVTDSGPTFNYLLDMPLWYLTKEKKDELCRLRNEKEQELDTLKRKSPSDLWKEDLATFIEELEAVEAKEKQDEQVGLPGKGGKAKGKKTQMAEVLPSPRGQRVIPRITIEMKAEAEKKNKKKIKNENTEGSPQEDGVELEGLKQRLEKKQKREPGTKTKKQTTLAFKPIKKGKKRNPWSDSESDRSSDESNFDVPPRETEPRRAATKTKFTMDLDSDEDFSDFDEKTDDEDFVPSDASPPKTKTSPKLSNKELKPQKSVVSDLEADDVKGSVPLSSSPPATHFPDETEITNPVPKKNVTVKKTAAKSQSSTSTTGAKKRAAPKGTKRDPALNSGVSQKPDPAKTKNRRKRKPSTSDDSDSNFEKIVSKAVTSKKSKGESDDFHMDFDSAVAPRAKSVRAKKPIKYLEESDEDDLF
UniProt Q02880: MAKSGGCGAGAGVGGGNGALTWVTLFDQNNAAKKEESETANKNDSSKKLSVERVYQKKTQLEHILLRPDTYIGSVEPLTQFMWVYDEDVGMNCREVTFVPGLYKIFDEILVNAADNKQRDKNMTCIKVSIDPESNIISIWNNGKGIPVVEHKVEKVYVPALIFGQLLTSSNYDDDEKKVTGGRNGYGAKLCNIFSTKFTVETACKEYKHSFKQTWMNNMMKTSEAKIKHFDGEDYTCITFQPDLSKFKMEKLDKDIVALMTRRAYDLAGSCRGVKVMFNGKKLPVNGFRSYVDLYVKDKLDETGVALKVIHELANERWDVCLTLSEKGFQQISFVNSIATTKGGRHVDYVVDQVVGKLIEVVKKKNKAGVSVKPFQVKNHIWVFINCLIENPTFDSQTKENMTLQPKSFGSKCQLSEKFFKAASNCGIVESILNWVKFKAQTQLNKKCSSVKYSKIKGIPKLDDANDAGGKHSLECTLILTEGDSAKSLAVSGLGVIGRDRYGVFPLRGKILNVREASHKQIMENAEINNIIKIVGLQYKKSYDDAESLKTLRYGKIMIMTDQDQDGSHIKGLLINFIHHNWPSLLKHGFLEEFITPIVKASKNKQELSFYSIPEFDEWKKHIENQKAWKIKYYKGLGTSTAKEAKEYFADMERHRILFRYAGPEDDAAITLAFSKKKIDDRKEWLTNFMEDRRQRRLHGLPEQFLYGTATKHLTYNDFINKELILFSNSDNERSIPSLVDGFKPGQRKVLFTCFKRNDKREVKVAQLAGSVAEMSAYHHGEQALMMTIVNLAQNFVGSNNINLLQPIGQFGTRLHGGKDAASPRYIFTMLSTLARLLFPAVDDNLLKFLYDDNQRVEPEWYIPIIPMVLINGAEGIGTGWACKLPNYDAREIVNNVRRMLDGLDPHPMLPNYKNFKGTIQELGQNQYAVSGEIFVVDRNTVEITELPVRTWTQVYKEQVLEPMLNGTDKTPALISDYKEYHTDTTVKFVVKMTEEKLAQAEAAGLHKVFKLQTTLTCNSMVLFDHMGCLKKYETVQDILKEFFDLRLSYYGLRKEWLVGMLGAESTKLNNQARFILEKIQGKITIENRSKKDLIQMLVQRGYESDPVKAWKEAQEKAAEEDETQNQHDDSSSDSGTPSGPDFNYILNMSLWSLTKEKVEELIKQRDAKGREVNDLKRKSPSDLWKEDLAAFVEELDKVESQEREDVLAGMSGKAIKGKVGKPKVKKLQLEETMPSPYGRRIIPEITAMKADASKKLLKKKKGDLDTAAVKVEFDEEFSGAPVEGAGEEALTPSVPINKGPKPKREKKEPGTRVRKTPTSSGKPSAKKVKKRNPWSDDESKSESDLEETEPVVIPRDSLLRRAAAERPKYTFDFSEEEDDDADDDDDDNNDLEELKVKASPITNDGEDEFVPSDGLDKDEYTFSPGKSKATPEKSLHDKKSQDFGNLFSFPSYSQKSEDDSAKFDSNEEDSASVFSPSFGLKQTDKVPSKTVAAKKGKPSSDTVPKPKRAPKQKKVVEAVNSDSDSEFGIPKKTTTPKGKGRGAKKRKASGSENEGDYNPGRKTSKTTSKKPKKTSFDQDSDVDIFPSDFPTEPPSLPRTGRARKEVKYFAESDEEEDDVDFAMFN

Legend:
FLAG-PIAS4 (human) = molecular target: T1, FLAG-PIAS4 (human) (UniProt Q8N2W9); assay: proximity ligation
T1 sequence: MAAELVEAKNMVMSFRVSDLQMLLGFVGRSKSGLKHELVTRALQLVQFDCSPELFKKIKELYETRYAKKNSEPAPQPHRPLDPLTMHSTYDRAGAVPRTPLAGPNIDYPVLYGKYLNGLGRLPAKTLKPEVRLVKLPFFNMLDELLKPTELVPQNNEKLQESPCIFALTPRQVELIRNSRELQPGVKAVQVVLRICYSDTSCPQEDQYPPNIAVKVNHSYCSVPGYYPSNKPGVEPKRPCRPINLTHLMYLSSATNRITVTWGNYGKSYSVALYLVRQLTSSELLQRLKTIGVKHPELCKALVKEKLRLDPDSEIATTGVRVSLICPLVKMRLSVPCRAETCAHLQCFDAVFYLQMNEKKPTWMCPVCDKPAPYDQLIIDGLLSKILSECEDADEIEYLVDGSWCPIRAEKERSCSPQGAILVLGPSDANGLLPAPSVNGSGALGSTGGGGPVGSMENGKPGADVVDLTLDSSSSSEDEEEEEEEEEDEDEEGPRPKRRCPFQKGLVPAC

[1] = molecular target: 6×His tagged TOP1 (human) (UniProt P11387); assay: pull-down
[2] = molecular target: FLAG tagged TOP2α (human) (UniProt P11388); assay: co-IP
[3] = molecular target: FLAG tagged TOP2β (human) (UniProt Q02880); assay: co-IP

TOP1 (from UniProt P11387 1-765) was tested, and the binding (FLAG-PIAS4 (human)) was “binds”.

B1: PIAS4 (protein, UniProt Q8N2W9 1-510)
chain: MAAELVEAKNMVMSFRVSDLQMLLGFVGRSKSGLKHELVTRALQLVQFDCSPELFKKIKELYETRYAKKNSEPAPQPHRPLDPLTMHSTYDRAGAVPRTPLAGPNIDYPVLYGKYLNGLGRLPAKTLKPEVRLVKLPFFNMLDELLKPTELVPQNNEKLQESPCIFALTPRQVELIRNSRELQPGVKAVQVVLRICYSDTSCPQEDQYPPNIAVKVNHSYCSVPGYYPSNKPGVEPKRPCRPINLTHLMYLSSATNRITVTWGNYGKSYSVALYLVRQLTSSELLQRLKTIGVKHPELCKALVKEKLRLDPDSEIATTGVRVSLICPLVKMRLSVPCRAETCAHLQCFDAVFYLQMNEKKPTWMCPVCDKPAPYDQLIIDGLLSKILSECEDADEIEYLVDGSWCPIRAEKERSCSPQGAILVLGPSDANGLLPAPSVNGSGALGSTGGGGPVGSMENGKPGADVVDLTLDSSSSSEDEEEEEEEEEDEDEEGPRPKRRCPFQKGLVPAC
With B1 the binding [1] was “binds”, the binding [2] was “binds” and the binding [3] was “binds”.
